Experimental data published in paper PMC12370185.
The list shows a part of the results. At the low end of the ranking the order means little.

system: KLF4 + histone octamer; test: Pioneer-seq (competitive nucleosome EMSA with sequencing); settings: 10 mM Tris-Cl pH 7.5, 50 mM NaCl, 1 mM DTT, 0.25 mg/ml BSA, 2 mM MgCl2, 0.025% Nonidet P-40, 5% glycerol; 28 nM nucleosome library; 10 min on ice then 30 min …; high values mean tight binding; double strand, one strand shown

Sequence	binding signal (log2 relative supershift)
GATGGACCCTATACGCGGCTTTTAAAAATCAATGGCTGATAATACTGTTATCTGTGGTTATACAGCTGATACCAGCATTAAGGACCAAGGTGTCTGTACTAGTGTTTGTATTGCAGGAGGTGGAGAGCGAACAATACCATGAAAAGCAACAAGTTCCTGTGTGCTGCTATATTTGGATAAGAGAGGAAGAATGAGATGGAGGGACTTGTTTGCCAGTCGGATAGTGTTCC	-0.182
GATGGACCCTATACGCGGCCTGGGTTCTGAGAGCCTTCAGGACATGTGTCACCGCAGACGACGTTTTAACTTGTAGTGCTAGCTGCTTGTTTCAACTTGCTCCACAAAGGAAAAATAACTATTATGGTCTGGGTGGCACTGGGAAAACATCTTCCATCTTCTAGACCTAGAAGTGAGACTTTTAGCTGAAGAAATGGACTCCAAGTCCAGTGCCAGTCGGATAGTGTTCC	-0.637
GATGGACCCTATACGCGGCTGTGAAATAACCTGCATTAGAATTACCTGGTGGACAACACATATTAACAATGCATATTCTGAGTCCTCAAAGAACTATCAAATAAGAATCTTTGAGGTGGGGCTACACAATCTCCATCACTGGCAAGCACTCCCAGTACTTCTTATGCACATTACAATTCAAGAACCACTCATGGCTCACATAACTGCTCATGCCAGTCGGATAGTGTTCC	-0.0652
GATGGACCCTATACGCGGCTGTGTTTTAAAAAAGAAGTATTTCTTGCAAACACTTATGACTTGTCTATGTCTTCTACAAGTCTGGACATGTCTTGGAACATTATCTGTGTTCTGTGGGTTACAAGGCTTGTCGAGGTCAAAGTACTCAGACATGAGACAGGCACCTTGTATACTCCAGAGAGCTAGAAATACTTGGAGATTAAGTCTAGTTGCCAGTCGGATAGTGTTCC	-0.264
GATGGACCCTATACGCGGCGAACAATCAAGAGCTGTTTCTCTTTGCTCTTCCTCATAGCCATGCTGGAGGCATTCATAGGCACATCCTGGTGGAGGGTGATTTGGGTGGGTAGGAATGGACTTGTTCTGTTGACATTGGCATGAAAGGACTAGAGTGCATCCATCATTCTATGGGTATTTAATGGGCCCTATGTTGAGCTGTGTTCTGGTTGCCAGTCGGATAGTGTTCC	-0.126
GATGGACCCTATACGCGGCTTGAAAGCCAAACTCTTAGATGTTGTGCATGTCGAAACTGGAACAAAGATTATAATGCAAGTTCAATTTTCCTCAAATATGGATCTCAACATTAATTGTGGTATGCAGCTCACCCACAGCCTTGGGTGTGGTCTATGAATGCAGCTGCTACTCTGTTCTACAATTATTGTATTTTATTGCCATTATGACTGTGCCAGTCGGATAGTGTTCC	-0.165
GATGGACCCTATACGCGGCCACTATTTCACGACCTTGCACATAGTTCATTTGTTTCATACATCACACACTGTTGTGTTACGTATTGACATGGCTGTCTTCACAACTAGGCTCTGAGCACCTTAAAGGCTGGGACTGACGCCAGTCACAATCTAATGCAAAGGACAGTGCTGTTATGGAAATGTTTATTGAACTGAACTGAAAATCCTGCCTGCCAGTCGGATAGTGTTCC	-0.403
GATGGACCCTATACGCGGCACACAAACTCTTTCCCCCTTGTCCGTTTGCAGGCTCTCTCATCTGGCACCTATAGTGACACCTGCTCCTTTGAGTGGCCCCTTGCCCAGGACACAGCTGTGTTCCTTCATGGCATCATTTGTGTGCTGGCTCAGGCCAGCCTATGGTCCCTGCTCCCCAAGCCTCTCACTGAAGAGAAAGGCACTGAAAGGTGCCAGTCGGATAGTGTTCC	-0.059
GATGGACCCTATACGCGGCGAATGGTGGCTGGACTCTATTAGGCTCCAAACTCTCATGTGCCTGAGCGCCAGCTCCCTCTCTAAACATAAGCATCTCGGGGCTGGAGGTGGGGGGAAATTTTCTGATGCATCTTTCTTTGCCATGTAATTCCTACCCCAGGATCATGCTCACATAAGTGTTCTTGGAATATGTGAGTAAGTGACTGAAAATGCCAGTCGGATAGTGTTCC	-0.075
GATGGACCCTATACGCGGCATTATGTACACAGTCTCATGGACAAAGGCATTTGTCAAGTCTCTATGATATTTCTAGAAATACCTTACAGGGCATTATGACTATACAAAGTCAGGGTAGGGCAGCAGAATGCCTGTCTTCAAGACTCTCCATCCCAATGCTCAGGACTTGTTATGCTACTCAGACCAGCATCTTTTGCACAAAGTATTTGTTGCCAGTCGGATAGTGTTCC	-0.247
GATGGACCCTATACGCGGCTTAATTCCTCCACTCTTGCAAGTGTACTTAATAGCTCACACAAAGCAAGAAGCATAACCGCAAGAACACAGAGAAGCCTGCCCTGCCAGGTTTATTGTGTGCCTGGCTGCGTGATTATTGTTTTGCATATAACCTCACAGAGGAAATCCTGTGTCAGGCACTTCCAGAGCCTCATGTAGTTTTACTGGATGTGCCAGTCGGATAGTGTTCC	-0.583
GATGGACCCTATACGCGGCTATAGAGATTGAATGGAAGAGTGCCTTGGAAAGTGTCTCTACCAAATGGCACCTGAGCTGAATGTTGTAGAATAAGAGCTGTTCATCAGGATGACAATGGGAGGGGAGGAGGCTGAGATAAAGGCATTTCAAATGGAGGGAATAGCAAAGATGTGGAAGCATGGCCTGTCATTAAACTGCAAGTAGTTCAGTGCCAGTCGGATAGTGTTCC	-0.387
GATGGACCCTATACGCGGCTCATGGAATCCTTCATTAGCTCCATTTCTTAGCAGAAAAGGTTGTGCAGCATATGCCATATCATACTGGATATGCCCCATCTCATGATGAGCTGTCAGGAAGTCGTCCATTGTCACCTTTGTGCACATAAGGATCCTGCATGAAAATGGACAAGATGAAAATGAATCTCACTGACTTTCATTTAACCATTATGCCAGTCGGATAGTGTTCC	-0.496
GATGGACCCTATACGCGGCATGATTCTCGCCAGTGGTATTAACATATCCTCAGTGGTGAGTATTAACATGGAACTTACTCCAACAATACAGATGCTGAATAAATGTAGTCTAAGTGAAGGAAGAAGGAAAGGTGGGAGCTGCCATCACTCAGAATTGTCCAGCAGGGATTGTGCAAGCTTGTGAATAAAGACAGAGGTTATTGAACAGCGTGCCAGTCGGATAGTGTTCC	-0.222
GATGGACCCTATACGCGGCTGCTGGAATGTTCCTGTATTGCCTGCTTTAGCATGTGTGTTGGCAGGGTGTAGATACATACACCCCCACAACGACCCTCCTCCCACCCTATGTAAATGTACTCACTCTACAGCATTGTAAAGGATTTCATTGTGCCATTTTGTTTTCAGAATCATCTTTCACTCTTTTGTGAGTATAATGATAGTAGCTGTTGCCAGTCGGATAGTGTTCC	-0.209
GATGGACCCTATACGCGGCTGGGATTTGGGAATGATGTGTGTGAATTAGAGAGATTTCGAGACCTGAAATAGAGAAAAGCAAGTTAAGACATCAACTGGGGCCCAGAAACAGCACTACAGCGGGGACGACCCACCTCTCAGATGCCTGGTGAGATAAAGAAAGGTCTGGCTGACTCCACTGCCCAGTACTGTGAAGCAGCAGTGAAGACTTGCCAGTCGGATAGTGTTCC	-0.0256
GATGGACCCTATACGCGGCGAGTAAACCAGTCTGCCTGTGAGAGTATTGACTGTGGTTAAGAATGCGGGATTGTGTTGCAAAGAAGCTCAGGCCTGTAATGTTATCACTCAGCAGGACTGGGTCCCATCAGAAGGCACATGGTGTGCCATGACGTAGCTGGTCTTCGACCACAAAAGCAGACTTTTCTCTGTGAATTAGACAAACCACACTGCCAGTCGGATAGTGTTCC	-0.557
GATGGACCCTATACGCGGCTAAAGTCCTTCAACATGTGAACAGACACTGTTTCTGAGGCTGTCACACACATGCAGGGAAAAGGATTTACCTTACAAAACAATGTTGCTTTGATAATACCACATCTGCAACCCTAATTGTGCCTTTGTAGCAAGTTGGTTTGGCCATTGGTCATCCTCCACAGCACTGCAATTTATCCTCCAGGAACACATTGCCAGTCGGATAGTGTTCC	-0.209
GATGGACCCTATACGCGGCTACCAGAGACTGGACAATTTACAAAAGAAAGTGATTTATTGGACTTAACAGTTCCATGTGGCTGGGGAGGCCTCACAATCACAGTGGAAGGTGAAAGGCAAAAGGCACATCGCACATGGTGGCAGACAGGAGAACAGAGCTTGTGCAGGGAGAATGCCCTTTTACATCATATCTCAAGAGACATATTCACTTGCCAGTCGGATAGTGTTCC	-0.0422
GATGGACCCTATACGCGGCTTTGGTTTTCCATATTTATATCCTATATACTTGTGTGTACAATGCAAGCTTTGTTATGCTGTATCTGGCCAGTGTTTTCTTCCCTTTACAACAGGCAGTAACTGTAGCTGTGCATAATGTACCTGACAGTGAAGGTGGCTGGCTATTGAAGTCTCTTGTTGGGCAACGTTTGTGCTGGCACAGCCATGGTATGCCAGTCGGATAGTGTTCC	-0.0453
GATGGACCCTATACGCGGCACACATCAGGAAAGATGGCAAGCAGAACGAGAACTAGTGCTACAAAAAGTGATCTCACTGTAACAGCATGGGTGGGCCTGGAAGTCAGTTCTCATGCAACCCCATTAGTTCTAGAAAGTTCTCATATGACTAAGAAAAAGCTGACAGGAATCAAACAGATTTCATCATTAAGCAAACAGAAAACATCAAGTTGCCAGTCGGATAGTGTTCC	-0.591
GATGGACCCTATACGCGGCTCTACTTCTTGTTTCTTTCCTTGCTATTTAATACTTAAAGTGTGGTGCCCCACTTGTTTGCCAGGAGCAGTATCACATCAGACTCTGCTGTTAACAAGGTCCCCAGGTGATTCATATGCACATTAAAGTTCATTTTGCACCTCTTTTGGCATTGACTTTACTTTCAGTGGCCTATTTTATGTAATGTAAAATGCCAGTCGGATAGTGTTCC	-0.726
GATGGACCCTATACGCGGCTGAAACAATCCTTACTCAGAGAGTGGATTTGCATCTCTAATAGAGTTCAGGCTCTGTTTGTGAAAGGCTTTTGCTAGGCCTGACCCCATGTCTCAGGAGCACATTGATACCCAGCGCCTTGCCTTTGCCTTGTCCCACACCACAGAGAGCAGTATCATGGGAAAATGCACTAACCTAAAAGAAAGCAAAGGTGCCAGTCGGATAGTGTTCC	-0.222

Copied from the listing (two entries):
Sequence	binding signal (log2 relative supershift)
GATGGACCCTATACGCGGCACACAAACTCTTTCCCCCTTGTCCGTTTGCAGGCTCTCTCATCTGGCACCTATAGTGACACCTGCTCCTTTGAGTGGCCCCTTGCCCAGGACACAGCTGTGTTCCTTCATGGCATCATTTGTGTGCTGGCTCAGGCCAGCCTATGGTCCCTGCTCCCCAAGCCTCTCACTGAAGAGAAAGGCACTGAAAGGTGCCAGTCGGATAGTGTTCC	-0.059
GATGGACCCTATACGCGGCGAATGGTGGCTGGACTCTATTAGGCTCCAAACTCTCATGTGCCTGAGCGCCAGCTCCCTCTCTAAACATAAGCATCTCGGGGCTGGAGGTGGGGGGAAATTTTCTGATGCATCTTTCTTTGCCATGTAATTCCTACCCCAGGATCATGCTCACATAAGTGTTCTTGGAATATGTGAGTAAGTGACTGAAAATGCCAGTCGGATAGTGTTCC	-0.075
